Measurements reported in patent publication US5693502.

Protein sequences, listed by entry. Tags and fused reporters are not part of them.
UniProt P19821, whole entry: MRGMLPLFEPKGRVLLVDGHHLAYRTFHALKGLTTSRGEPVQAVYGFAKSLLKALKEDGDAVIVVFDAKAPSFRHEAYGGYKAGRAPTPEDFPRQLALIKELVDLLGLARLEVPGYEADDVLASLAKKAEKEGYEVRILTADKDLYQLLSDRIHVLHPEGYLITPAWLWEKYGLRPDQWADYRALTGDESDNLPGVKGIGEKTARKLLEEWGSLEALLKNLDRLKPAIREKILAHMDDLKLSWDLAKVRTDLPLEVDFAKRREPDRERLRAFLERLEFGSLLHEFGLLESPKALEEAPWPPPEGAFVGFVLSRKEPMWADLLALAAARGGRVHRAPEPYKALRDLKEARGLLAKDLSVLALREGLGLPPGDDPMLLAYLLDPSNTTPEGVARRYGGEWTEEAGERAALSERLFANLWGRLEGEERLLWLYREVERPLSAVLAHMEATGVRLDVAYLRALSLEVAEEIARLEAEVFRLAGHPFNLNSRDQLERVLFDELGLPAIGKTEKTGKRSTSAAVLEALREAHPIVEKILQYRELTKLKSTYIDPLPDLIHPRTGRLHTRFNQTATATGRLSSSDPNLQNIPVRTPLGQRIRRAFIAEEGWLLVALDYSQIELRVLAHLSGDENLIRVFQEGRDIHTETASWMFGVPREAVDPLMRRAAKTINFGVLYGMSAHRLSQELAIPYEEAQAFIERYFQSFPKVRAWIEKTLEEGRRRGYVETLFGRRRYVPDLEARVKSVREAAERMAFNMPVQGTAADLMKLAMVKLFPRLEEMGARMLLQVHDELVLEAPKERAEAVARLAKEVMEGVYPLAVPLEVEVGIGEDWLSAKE
UniProt P52028, whole entry: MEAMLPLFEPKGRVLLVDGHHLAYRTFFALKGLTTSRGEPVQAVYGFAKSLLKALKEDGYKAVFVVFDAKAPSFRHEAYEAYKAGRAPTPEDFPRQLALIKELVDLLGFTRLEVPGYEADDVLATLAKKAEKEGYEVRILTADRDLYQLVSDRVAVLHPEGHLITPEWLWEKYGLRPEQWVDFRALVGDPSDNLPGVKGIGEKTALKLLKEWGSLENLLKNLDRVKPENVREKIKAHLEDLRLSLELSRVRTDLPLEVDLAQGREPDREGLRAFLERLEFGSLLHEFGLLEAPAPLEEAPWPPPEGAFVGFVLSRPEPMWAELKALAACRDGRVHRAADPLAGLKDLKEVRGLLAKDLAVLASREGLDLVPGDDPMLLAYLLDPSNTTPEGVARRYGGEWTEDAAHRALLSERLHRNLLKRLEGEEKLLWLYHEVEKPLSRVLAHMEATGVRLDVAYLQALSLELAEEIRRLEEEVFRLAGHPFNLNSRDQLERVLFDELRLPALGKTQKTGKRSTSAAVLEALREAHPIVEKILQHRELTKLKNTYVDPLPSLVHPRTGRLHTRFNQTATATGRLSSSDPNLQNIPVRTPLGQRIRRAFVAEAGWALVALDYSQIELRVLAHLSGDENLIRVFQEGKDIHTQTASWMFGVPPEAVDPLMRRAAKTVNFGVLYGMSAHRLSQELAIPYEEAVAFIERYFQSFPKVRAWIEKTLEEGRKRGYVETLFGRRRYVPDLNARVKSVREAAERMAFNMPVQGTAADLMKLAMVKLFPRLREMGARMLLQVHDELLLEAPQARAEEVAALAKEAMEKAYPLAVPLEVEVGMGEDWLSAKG

Tests used:
[1] = target: Taq DNA polymerase (rTaq) (Thermus aquaticus) (UniProt P19821); assay: activity assay; conditions: hairpin template extended by polymerase; standard PCR buffer; purified recombinant protein; protein details: Roche Molecular Systems, Mr 94 kDa; label: 5'-32P; folded or branched DNA
[2] = target: Tth DNA polymerase (rTth) (Thermus thermophilus) (UniProt P52028); assay: activity assay; conditions: hairpin template extended by polymerase; purified recombinant protein; protein details: Roche Molecular Systems, Mr 94 kDa; label: 5'-32P; folded or branched DNA

ATGCCTAAGTTTCGAACGCGGCTAGCCAGCTTTTGCTGGCTAGCCGCGT [DNA-HP hairpin template]
activity on this sequence [1]: active
activity on this sequence [2]: active
